Results are given in words; binding and its absence hold for the method and conditions named. Binding seen in cells or lysates may run through a third protein. Here binding means that the protein was enriched with, or labelled near, the bait; the list need not be complete. Sequences can lack the tags named with a protein.
Target: T1, human ASIC1a C-terminally fused to eGFP (human) (UniProt P78348)
T1 sequence: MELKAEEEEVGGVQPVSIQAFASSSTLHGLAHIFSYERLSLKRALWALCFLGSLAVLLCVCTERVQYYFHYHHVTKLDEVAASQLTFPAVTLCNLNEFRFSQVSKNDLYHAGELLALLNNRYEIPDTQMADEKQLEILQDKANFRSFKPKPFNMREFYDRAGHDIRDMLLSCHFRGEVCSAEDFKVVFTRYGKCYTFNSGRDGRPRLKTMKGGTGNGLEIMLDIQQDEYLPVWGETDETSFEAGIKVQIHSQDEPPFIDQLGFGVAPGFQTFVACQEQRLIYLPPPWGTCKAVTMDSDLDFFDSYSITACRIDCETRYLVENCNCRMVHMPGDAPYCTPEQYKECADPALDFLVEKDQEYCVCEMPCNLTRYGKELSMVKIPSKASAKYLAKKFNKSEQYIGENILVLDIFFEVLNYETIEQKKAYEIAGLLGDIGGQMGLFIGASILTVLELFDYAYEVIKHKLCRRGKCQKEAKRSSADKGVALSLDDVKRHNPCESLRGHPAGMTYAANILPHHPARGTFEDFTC
Experiment: affinity purification with mass spectrometry

B1: human monocarboxylate transporter 1 (MCT1), endogenous (protein, UniProt P53985 1-500)
chain: MPPAVGGPVGYTPPDGGWGWAVVIGAFISIGFSYAFPKSITVFFKEIEGIFHATTSEVSWISSIMLAVMYGGGPISSILVNKYGSRIVMIVGGCLSGCGLIAASFCNTVQQLYVCIGVIGGLGLAFNLNPALTMIGKYFYKRRPLANGLAMAGSPVFLCTLAPLNQVFFGIFGWRGSFLILGGLLLNCCVAGALMRPIGPKPTKAGKDKSKASLEKAGKSGVKKDLHDANTDLIGRHPKQEKRSVFQTINQFLDLTLFTHRGFLLYLSGNVIMFFGLFAPLVFLSSYGKSQHYSSEKSAFLLSILAFVDMVARPSMGLVANTKPIRPRIQYFFAASVVANGVCHMLAPLSTTYVGFCVYAGFFGFAFGWLSSVLFETLMDLVGPQRFSSAVGLVTIVECCPVLLGPPLLGRLNDMYGDYKYTYWACGVVLIISGIYLFIGMGINYRLLAKEQKANEQKKESKEEETSIDVAGKPNEVTKAAESPDQKDTDGGPKEEESPV
Question: B1 was tested. Which binding did it give?
Answer: binds

Source: paper doi:10.1101/2025.06.30.651016
